# Data published in the supplement of paper PMC8728848.
# The list shows a part of the results.
# Tests used:
# Experiment in all cases: glycan array binding signal (z-score within array); higher = stronger binding
# Conditions in all cases: glycan notation: IUPAC condensed, linker removed
# [1] = target: Gal(b1-4)GlcNAc(b1-3)Gal(b1-4)GlcNAc(b1-2)[Gal(b1-4)GlcNAc(b1-3)Gal(b1-4)GlcNAc(b1-6)]Man(a1-6)[Gal(b1-4)GlcNAc(b1-3)Gal(b1-4)GlcNAc(b1-2)Man(a1-3)]Man(b1-4)GlcNAc(b1-4)GlcNAc
# Summary of the method: (§1)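 Arrays were curated from the Consortium for Functional Glycomics database, 3228 in total, and kept only where the protein sequence was available. Binding is expressed as a within-array Z-score. This score was averaged across arrays of the same protein sequence at different concentrations or buffers and across linkers, and negative values can be read as non-binding.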
# [2] = target: Gal(b1-4)GlcNAc(b1-3)Gal(b1-4)GlcNAc(b1-2)[Gal(b1-4)GlcNAc(b1-3)Gal(b1-4)GlcNAc(b1-6)]Man(a1-6)[Gal(b1-4)GlcNAc(b1-3)Gal(b1-4)GlcNAc(b1-2)Man(a1-3)]Man(b1-4)GlcNAc(b1-4)[Fuc(a1-6)]GlcNAc
# Summary of the method: as §1
# [3] = target: Gal(b1-4)GlcNAc(b1-3)Gal(b1-4)GlcNAc(b1-3)Gal(b1-4)GlcNAc
# Summary of the method: as §1
# [4] = target: Gal(b1-4)GlcNAc(b1-3)Gal(b1-4)GlcNAc(b1-3)Gal(b1-4)GlcNAc(b1-2)Man(a1-3)[Gal(b1-4)GlcNAc(b1-3)Gal(b1-4)GlcNAc(b1-3)Gal(b1-4)GlcNAc(b1-2)Man(a1-6)]Man(b1-4)GlcNAc(b1-4)GlcNAc
# Summary of the method: as §1
# [5] = target: Gal(b1-4)GlcNAc(b1-3)Gal(b1-4)GlcNAc(b1-3)Gal(b1-4)GlcNAc(b1-2)Man(a1-3)[Gal(b1-4)GlcNAc(b1-3)Gal(b1-4)GlcNAc(b1-3)Gal(b1-4)GlcNAc(b1-2)Man(a1-6)]Man(b1-4)GlcNAc(b1-4)[Fuc(a1-6)]GlcNAc
# Summary of the method: as §1
# [6] = target: Gal(b1-4)GlcNAc(b1-3)Gal(b1-4)GlcNAc(b1-3)Gal(b1-4)GlcNAc(b1-2)[Gal(b1-4)GlcNAc(b1-3)Gal(b1-4)GlcNAc(b1-3)Gal(b1-4)GlcNAc(b1-6)]Man(a1-6)[Gal(b1-4)GlcNAc(b1-3)Gal(b1-4)GlcNAc(b1-3)Gal(b1-4)GlcNAc(b1-2)Man(a1-3)]Man(b1-4)GlcNAc(b1-4)[Fuc(a1-6)]GlcNAc
# Summary of the method: as §1
# [7] = target: Gal(b1-4)GlcNAc(b1-3)Gal(b1-4)GlcNAc(b1-3)Gal(b1-4)GlcNAc(b1-3)Gal(b1-4)GlcNAc(b1-2)Man(a1-3)[Gal(b1-4)GlcNAc(b1-3)Gal(b1-4)GlcNAc(b1-3)Gal(b1-4)GlcNAc(b1-3)Gal(b1-4)GlcNAc(b1-2)Man(a1-6)]Man(b1-4)GlcNAc(b1-4)GlcNAc
# Summary of the method: as §1
# [8] = target: Gal(b1-4)GlcNAc(b1-3)Gal(b1-4)GlcNAc(b1-3)Gal(b1-4)GlcNAc(b1-3)Gal(b1-4)GlcNAc(b1-2)Man(a1-3)[Gal(b1-4)GlcNAc(b1-3)Gal(b1-4)GlcNAc(b1-3)Gal(b1-4)GlcNAc(b1-3)Gal(b1-4)GlcNAc(b1-2)Man(a1-6)]Man(b1-4)GlcNAc(b1-4)[Fuc(a1-6)]GlcNAc
# Summary of the method: as §1
# [9] = target: Gal(b1-4)GlcNAc(b1-3)Gal(b1-4)GlcNAc(b1-3)Gal(b1-4)GlcNAc(b1-3)Gal(b1-4)GlcNAc(b1-2)[Gal(b1-4)GlcNAc(b1-3)Gal(b1-4)GlcNAc(b1-3)Gal(b1-4)GlcNAc(b1-3)Gal(b1-4)GlcNAc(b1-6)]Man(a1-6)[Gal(b1-4)GlcNAc(b1-3)Gal(b1-4)GlcNAc(b1-3)Gal(b1-4)GlcNAc(b1-3)Gal(b1-4)GlcNAc(b1-2)Man(a1-3)]Man(b1-4)GlcNAc(b1-4)[Fuc(a1-6)]GlcNAc
# Summary of the method: as §1
# [10] = target: Gal(b1-4)GlcNAc(b1-3)Gal(b1-4)GlcNAc(b1-3)Gal(b1-4)GlcNAc(b1-3)Gal(b1-4)GlcNAc(b1-3)Gal(b1-4)GlcNAc(b1-2)Man(a1-3)[Gal(b1-4)GlcNAc(b1-3)Gal(b1-4)GlcNAc(b1-3)Gal(b1-4)GlcNAc(b1-3)Gal(b1-4)GlcNAc(b1-3)Gal(b1-4)GlcNAc(b1-2)Man(a1-6)]Man(b1-4)GlcNAc(b1-4)GlcNAc
# Summary of the method: as §1
# [11] = target: Gal(b1-4)GlcNAc(b1-3)Gal(b1-4)GlcNAc(b1-3)Gal(b1-4)GlcNAc(b1-3)Gal(b1-4)GlcNAc(b1-3)Gal(b1-4)GlcNAc(b1-2)Man(a1-3)[Gal(b1-4)GlcNAc(b1-3)Gal(b1-4)GlcNAc(b1-3)Gal(b1-4)GlcNAc(b1-3)Gal(b1-4)GlcNAc(b1-3)Gal(b1-4)GlcNAc(b1-2)Man(a1-6)]Man(b1-4)GlcNAc(b1-4)[Fuc(a1-6)]GlcNAc
# Summary of the method: as §1
# [12] = target: Gal(b1-4)GlcNAc(b1-3)Gal(b1-4)GlcNAc(b1-3)Gal(b1-4)GlcNAc(b1-3)Gal(b1-4)GlcNAc(b1-3)Gal(b1-4)GlcNAc(b1-2)[Gal(b1-4)GlcNAc(b1-3)Gal(b1-4)GlcNAc(b1-3)Gal(b1-4)GlcNAc(b1-3)Gal(b1-4)GlcNAc(b1-3)Gal(b1-4)GlcNAc(b1-6)]Man(a1-6)[Gal(b1-4)GlcNAc(b1-3)Gal(b1-4)GlcNAc(b1-3)Gal(b1-4)GlcNAc(b1-3)Gal(b1-4)GlcNAc(b1-3)Gal(b1-4)GlcNAc(b1-2)Man(a1-3)]Man(b1-4)GlcNAc(b1-4)[Fuc(a1-6)]GlcNAc
# Summary of the method: as §1
# [13] = target: Gal(b1-4)GlcNAc(b1-3)Gal(b1-4)GlcNAc(b1-3)Gal(b1-4)GlcNAc(b1-3)Gal(b1-4)GlcNAc(b1-3)Gal(b1-4)GlcNAc(b1-3)Gal(b1-4)GlcNAc(b1-2)Man(a1-3)[Gal(b1-4)GlcNAc(b1-3)Gal(b1-4)GlcNAc(b1-3)Gal(b1-4)GlcNAc(b1-3)Gal(b1-4)GlcNAc(b1-3)Gal(b1-4)GlcNAc(b1-3)Gal(b1-4)GlcNAc(b1-2)Man(a1-6)]Man(b1-4)GlcNAc(b1-4)GlcNAc
# Summary of the method: as §1
# [14] = target: Gal(b1-4)GlcNAc(b1-3)Gal(b1-4)GlcNAc(b1-3)GalNAc
# Summary of the method: as §1
# [15] = target: Gal(b1-4)GlcNAc(b1-3)Gal(b1-4)GlcNAc(b1-3)[Gal(b1-4)GlcNAc(b1-3)Gal(b1-4)GlcNAc(b1-6)]GalNAc
# Summary of the method: as §1
# [16] = target: Gal(b1-4)GlcNAc(b1-3)Gal(b1-4)GlcNAc(b1-6)[Gal(b1-3)]GalNAc
# Summary of the method: as §1
# [17] = target: Gal(b1-4)GlcNAc(b1-3)Gal(b1-4)[Fuc(a1-3)]GlcNAc(b1-3)Gal(b1-4)[Fuc(a1-3)]GlcNAc
# Summary of the method: as §1
# [18] = target: Gal(b1-4)GlcNAc(b1-3)GalNAc
# Summary of the method: as §1
# [19] = target: Gal(b1-4)GlcNAc(b1-3)[Fuc(a1-3)GlcNAc(b1-6)]Gal(b1-4)Glc
# Summary of the method: as §1
# [20] = target: Gal(b1-4)GlcNAc(b1-3)[Gal(b1-4)GlcNAc(b1-6)]Gal(b1-4)GlcNAc
# Summary of the method: as §1
# [21] = target: Gal(b1-4)GlcNAc(b1-3)[GlcNAc(b1-6)]Gal(b1-4)GlcNAc
# Summary of the method: as §1
# [22] = target: Gal(b1-4)GlcNAc(b1-6)Gal(b1-4)GlcNAc
# Summary of the method: as §1
# [23] = target: Gal(b1-4)GlcNAc(b1-6)GalNAc
# Summary of the method: as §1
# [24] = target: Gal(b1-4)GlcNAc(b1-6)[Gal(b1-3)]GalNAc
# Summary of the method: as §1
# [25] = target: Gal(b1-4)GlcNAc(b1-6)[Gal(b1-4)GlcNAc(b1-3)]GalNAc
# Summary of the method: as §1
# Gal(b1-4)GlcNAc6P = target: Gal(b1-4)GlcNAc6P
# Summary of the method: as §1
# Gal(b1-6)Gal = target: Gal(b1-6)Gal
# Summary of the method: as §1
# Gal3S(b1-3)GalNAc = target: Gal3S(b1-3)GalNAc
# Summary of the method: as §1
# Gal3S(b1-3)GlcNAc = target: Gal3S(b1-3)GlcNAc
# Summary of the method: as §1
# [26] = target: Gal3S(b1-3)[Fuc(a1-4)]GlcNAc
# Summary of the method: as §1
# Gal3S(b1-4)Glc = target: Gal3S(b1-4)Glc
# Summary of the method: as §1
# Gal3S(b1-4)Glc6S = target: Gal3S(b1-4)Glc6S
# Summary of the method: as §1
# Gal3S(b1-4)GlcNAc = target: Gal3S(b1-4)GlcNAc
# Summary of the method: as §1
# [27] = target: Gal3S(b1-4)[Fuc(a1-3)]Glc6S
# Summary of the method: as §1
# [28] = target: Gal3S(b1-4)[Fuc(a1-3)]GlcNAc
# Summary of the method: as §1
# [29] = target: Gal3S(b1-4)[Fuc(a1-3)]GlcNAc6S
# Summary of the method: as §1
# Gal3S4S(b1-4)GlcNAc = target: Gal3S4S(b1-4)GlcNAc
# Summary of the method: as §1
# Gal3S6S(b1-4)GlcNAc = target: Gal3S6S(b1-4)GlcNAc
# Summary of the method: as §1
# Gal3S6S(b1-4)GlcNAc6S = target: Gal3S6S(b1-4)GlcNAc6S
# Summary of the method: as §1
# Gal4S(b1-4)GlcNAc = target: Gal4S(b1-4)GlcNAc
# Summary of the method: as §1
# Gal4S6S(b1-4)GlcNAc = target: Gal4S6S(b1-4)GlcNAc
# Summary of the method: as §1
# Gal6P(b1-4)GlcNAc = target: Gal6P(b1-4)GlcNAc
# Summary of the method: as §1
# Gal6S(b1-3)GlcNAc = target: Gal6S(b1-3)GlcNAc
# Summary of the method: as §1
# Gal6S(b1-3)GlcNAc6S = target: Gal6S(b1-3)GlcNAc6S
# Summary of the method: as §1
# Gal6S(b1-4)Glc = target: Gal6S(b1-4)Glc
# Summary of the method: as §1
binder,measurement,setting,value
CM2 (Cordyceps militaris) (protein) MEIAEQNVGKSCAIVNLIPPKEGSNIWTAKQVTIARNLPPNRGTGRHQIDWSFGPVKVTGYVDTTNWEIGVTVSIMGIDLGTVYGNLRDGVVLNVDLFLAKGQVRFYLKNGNEVWVHLSVEIRFDGKFEGDYKIITV,glycan array binding signal (z-score),[1],-1.47
same,glycan array binding signal (z-score),[2],2.29
same,glycan array binding signal (z-score),[3],-1.69
same,glycan array binding signal (z-score),[4],0.017
same,glycan array binding signal (z-score),[5],3.05
same,glycan array binding signal (z-score),[6],1.02
same,glycan array binding signal (z-score),[7],0.001
same,glycan array binding signal (z-score),[8],0.547
same,glycan array binding signal (z-score),[9],1.2
same,glycan array binding signal (z-score),[10],-0.651
same,glycan array binding signal (z-score),[11],-0.351
same,glycan array binding signal (z-score),[12],0.956
same,glycan array binding signal (z-score),[13],2.17
same,glycan array binding signal (z-score),[14],0.341
same,glycan array binding signal (z-score),[15],1.83
same,glycan array binding signal (z-score),[16],0.495
same,glycan array binding signal (z-score),[17],-0.058
same,glycan array binding signal (z-score),[18],0.521
same,glycan array binding signal (z-score),[19],1.42
same,glycan array binding signal (z-score),[20],-0.588
same,glycan array binding signal (z-score),[21],-0.393
same,glycan array binding signal (z-score),[22],-0.344
same,glycan array binding signal (z-score),[23],-0.05
same,glycan array binding signal (z-score),[24],-0.754
same,glycan array binding signal (z-score),[25],0.018
same,glycan array binding signal (z-score),Gal(b1-4)GlcNAc6P,-0.759
same,glycan array binding signal (z-score),Gal(b1-6)Gal,-2.15
same,glycan array binding signal (z-score),Gal3S(b1-3)GalNAc,1.81
same,glycan array binding signal (z-score),Gal3S(b1-3)GlcNAc,0.015
same,glycan array binding signal (z-score),[26],-0.383
same,glycan array binding signal (z-score),Gal3S(b1-4)Glc,0.687
same,glycan array binding signal (z-score),Gal3S(b1-4)Glc6S,1.54
same,glycan array binding signal (z-score),Gal3S(b1-4)GlcNAc,-0.321
same,glycan array binding signal (z-score),[27],-0.18
same,glycan array binding signal (z-score),[28],1.66
same,glycan array binding signal (z-score),[29],0.364
same,glycan array binding signal (z-score),Gal3S4S(b1-4)GlcNAc,0.112
same,glycan array binding signal (z-score),Gal3S6S(b1-4)GlcNAc,1.4
same,glycan array binding signal (z-score),Gal3S6S(b1-4)GlcNAc6S,3.73
same,glycan array binding signal (z-score),Gal4S(b1-4)GlcNAc,1.5
same,glycan array binding signal (z-score),Gal4S6S(b1-4)GlcNAc,-0.478
same,glycan array binding signal (z-score),Gal6P(b1-4)GlcNAc,-1.5
same,glycan array binding signal (z-score),Gal6S(b1-3)GlcNAc,-0.595
same,glycan array binding signal (z-score),Gal6S(b1-3)GlcNAc6S,0.068
same,glycan array binding signal (z-score),Gal6S(b1-4)Glc,0.018

# Retrieved one by one from above:
binder,measurement,setting,value
CM2 (Cordyceps militaris) (protein) MEIAEQNVGKSCAIVNLIPPKEGSNIWTAKQVTIARNLPPNRGTGRHQIDWSFGPVKVTGYVDTTNWEIGVTVSIMGIDLGTVYGNLRDGVVLNVDLFLAKGQVRFYLKNGNEVWVHLSVEIRFDGKFEGDYKIITV,glycan array binding signal (z-score),[16],0.495
same,glycan array binding signal (z-score),[13],2.17
